Measured values as given in patent US20060084599A1, “Compositions, methods and kits relating to notch signaling” (Maine Medical Center, priority 2003, published 2006).
Some results were stated once for a whole list of compounds, not compound by compound.

Test system: cortical neurospheres
Experiment: Cortical neurosphere model, secondary sphere formation
Type: cell-based, murine
Excerpt: Murine E13 cerebral cortices were dissected, the ventricular zone isolated, dissected free of the meninges and utilized as a source for the generation of clonal neurspheres. The resulting cells were dispersed by aspiration to produce single cells and cells expressing the […], CD24 as previously described (Rietze et al., 2001), and peanut agglutinin antigen (PNA) were sorted using a FASC Vantage SE cell sorter at a low gate (CD24^low/PNA^low), and the cells were subjected to immunofluoresence microscopy using an antibody against CD24 (Rietze et al., 2001, Nature 412:736-739). Double-positive cells (2×10^3 /ml) were plated in suspension as described (Reynolds et al., 1992, J. Neurosci. 12:4565-4574; Reynolds et al., 1992, Science 255:1707-1710) and secondary neurospheres generated 14 days later by isolating single spheres followed by trypsin digestion of each sphere. Cells obtained from the sphere were placed in suspension culture at a clonal cell seed density and colonies selected.
The E14 prefrontal ventricular zone was dissected and plated at a clonal neurosphere-forming density in the presence of either sJ1, sDl1, thrombin, TRAP or no supplementation. After 2 weeks, the clones were dissociated to single cells and secondary spheres were generated using standard media with no supplementation (Reynolds et al., 1992, J. Neurosci. 12:4565-4574). […]

thrombin
total cell numbers of primary spheres over the control: less than 2 fold
change in secondary stem cell generation (versus control): exceeded 5 fold
